Experiment [1] concerns the target T1, recombinant mambalgin-2 from Dendroaspis polylepis (Dendroaspis polylepis) (UniProt P0DKS3).
T1 sequence: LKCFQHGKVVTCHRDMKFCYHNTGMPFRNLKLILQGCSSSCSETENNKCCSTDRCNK
As to the kind of experiment: pull-down; mambalgin-2 (1 mg/ml) coupled to NHS-activated Sepharose 4 Fast Flow; membrane fraction of A549 cells solubilized in 2% Triton X-100, diluted 10 times with TBS pH 8.0, 16 h at 4°C; washes incl. TBS + 1 M NaCl + 0.5% Triton X-100; elution 200 mM glycine pH 2.6; Western blot; only the target purified. (A western blot detects proteins with antibodies after separation by electrophoresis.)

Experiment [2] deals with ASIC1a subunit (acid-sensing ion channel 1a) (human (endogenous in A549)). The experiment is described as follows: co-IP; anti-ASIC1a antibody (sheep, ABIN350049) on Protein-A agarose; pre-cleared membrane fraction of A549 cells solubilized in 2% Triton X-100, 16 h at 4°C in TBS; washes incl. TBS + 1 M NaCl + 0.5% Triton X-100; Western blot for α-ENaC and γ-ENaC.

These are yes or no findings as the source states them, for the method shown. In cells and extracts the contact can be indirect. A result given as binding can be weak or reduced; the word gives no strength.

Turning to “ASIC1a subunit (acid-sensing ion channel 1a) (human (endogenous in A549))”, the binding result in experiment [1] was “binds”.

B1: γ-ENaC subunit (epithelial Na+ channel gamma) (protein, UniProt P51170 1-649)
chain: MAPGEKIKAKIKKNLPVTGPQAPTIKELMRWYCLNTNTHGCRRIVVSRGRLRRLLWIGFTLTAVALILWQCALLVFSFYTVSVSIKVHFRKLDFPAVTICNINPYKYSTVRHLLADLEQETREALKSLYGFPESRKRREAESWNSVSEGKQPRFSHRIPLLIFDQDEKGKARDFFTGRKRKVGGSIIHKASNVMHIESKQVVGFQLCSNDTSDCATYTFSSGINAIQEWYKLHYMNIMAQVPLEKKINMSYSAEELLVTCFFDGVSCDARNFTLFHHPMHGNCYTFNNRENETILSTSMGGSEYGLQVILYINEEEYNPFLVSSTGAKVIIHRQDEYPFVEDVGTEIETAMVTSIGMHLTESFKLSEPYSQCTEDGSDVPIRNIYNAAYSLQICLHSCFQTKMVEKCGCAQYSQPLPPAANYCNYQQHPNWMYCYYQLHRAFVQEELGCQSVCKEACSFKEWTLTTSLAQWPSVVSEKWLLPVLTWDQGRQVNKKLNKTDLAKLLIFYKDLNQRSIMESPANSIEMLLSNFGGQLGLWMSCSVVCVIEIIEVFFIDFFSIIARRQWQKAKEWWAWKQAPPCPEAPRSPQGQDNPALDIDDDLPTFNSALHLPPALGTQVPGTPPPKYNTLRLERAFSNQLTDTQMLDEL
On to B1, for which the binding entry in experiment [2] was “binds”.

B2: α-ENaC subunit (epithelial Na+ channel alpha) (protein, UniProt P37088 1-669)
chain: MEGNKLEEQDSSPPQSTPGLMKGNKREEQGLGPEPAAPQQPTAEEEALIEFHRSYRELFEFFCNNTTIHGAIRLVCSQHNRMKTAFWAVLWLCTFGMMYWQFGLLFGEYFSYPVSLNINLNSDKLVFPAVTICTLNPYRYPEIKEELEELDRITEQTLFDLYKYSSFTTLVAGSRSRRDLRGTLPHPLQRLRVPPPPHGARRARSVASSLRDNNPQVDWKDWKIGFQLCNQNKSDCFYQTYSSGVDAVREWYRFHYINILSRLPETLPSLEEDTLGNFIFACRFNQVSCNQANYSHFHHPMYGNCYTFNDKNNSNLWMSSMPGINNGLSLMLRAEQNDFIPLLSTVTGARVMVHGQDEPAFMDDGGFNLRPGVETSISMRKETLDRLGGDYGDCTKNGSDVPVENLYPSKYTQQVCIHSCFQESMIKECGCAYIFYPRPQNVEYCDYRKHSSWGYCYYKLQVDFSSDHLGCFTKCRKPCSVTSYQLSAGYSRWPSVTSQEWVFQMLSRQNNYTVNNKRNGVAKVNIFFKELNYKTNSESPSVTMVTLLSNLGSQWSLWFGSSVLSVVEMAELVFDLLVIMFLMLLRRFRSRYWSPGRGGRGAQEVASTLASSPPSHFCPHPMSLSLSQPGPAPSPALTAPPPAYATLGPRPSPGGSAGASSSTCPLGGP
Regarding B2, the binding result in experiment [2] is “binds”.
